We go through 56 compounds from the supplement of paper PMC3047530.

SMILES strings stand for the structures. Some of the results follow. Single values are uncertain, as repeats are few or missing.

This assay concerns Geomyces destructans. The assay is described as follows: growth inhibition relative to DMSO control; higher = stronger growth inhibition. Particulars: 10 µM; 15 °C; incubation time 10 days.
On to `O=C(O)CN1C(=O)c2cccc3cccc(c23)C1=O`, for which the growth inhibition was -6.3%.
Next, `CCCCN(CCCC)CCCOC(=O)c1ccc(N)cc1`: -2.05%.
Next, `Cc1ccc(C(=O)c2ccc(CC(=O)O)n2C)cc1`: -16.2%; `COC(=O)Nc1nc2cc(C(=O)c3cccs3)ccc2[nH]1`: -6.42%; `NNCCc1ccccc1`: -19%.
Next, `CC(Cc1cccc(C(F)(F)F)c1)NCCOC(=O)c1ccccc1` (stereo unspecified): -4.65%.
Regarding `CC(=O)S[C@@H]1CC2=CC(=O)CC[C@]2(C)[C@H]2CC[C@@]3(C)[C@@H](CC[C@@]34CCC(=O)O4)[C@H]12`, the growth inhibition is -27.6%.
Next, `C[C@H](CCC(=O)O)[C@H]1CC[C@H]2[C@@H]3CC[C@H]4C[C@H](O)CC[C@]4(C)[C@H]3C[C@H](O)[C@]12C`: -4.15%.
Next, `COc1ccc(-c2cc(=O)c3ccccc3o2)cc1`: -2.21%; `CC1(C)C(O)CC(O)C2(C)C1CC(=O)C1(C)C2CCC2(C)C(C(=O)O)OC(=O)C3OC321` (stereo unspecified): -6.98%; `COc1ccc2c(=O)c(OC)c(-c3ccccc3)oc2c1`: -2.26%.
With `CN1CCN(CC/C=C2/c3ccccc3Sc3ccc(S(=O)(=O)N(C)C)cc32)CC1` the figure was -24%; with `CC[C@H](/C=C/[C@@H](C)[C@H]1CC[C@H]2[C@@H]3CC=C4C[C@@H](O)CC[C@]4(C)[C@H]3CC[C@]12C)C(C)C`, -5.8%.
On to `C[C@@H]1C[C@H]2[C@@H]3C[C@H](F)C4=CC(=O)C=C[C@]4(C)[C@@]3(F)[C@@H](O)C[C@]2(C)[C@@]1(O)C(=O)CO`, for which the growth inhibition was -31.4%.
For the compound `CC(=O)Oc1ccc2c(c1OC(C)=O)OCC1(O)Cc3c(cc(OC(C)=O)c(OC(C)=O)c3OC(C)=O)C21` (stereo unspecified), the growth inhibition was 9.36%.
Next, `COC(=O)c1cc(O)c(=O)c2c(O)c(O)ccc2c1`: -2.38%; `COc1c2occc2cc2ccc(=O)oc12`: -3.47%; `N=C(NCCCCCCNC(=N)NC(=N)Nc1ccc(Cl)cc1)NC(=N)Nc1ccc(Cl)cc1`: -7.55%.
Next, `CN1CCN(C2=Nc3ccccc3Oc3ccc(Cl)cc32)CC1`: -8.52%; `CCCCCc1c2c(cc(O)c1C(=O)O)OC(=O)c1c(cc(OC)cc1C(=O)CCCC)O2`: -10.5%.
As to `COC1=C[C@@H](C)[C@@H]2C[C@H]3OC(=O)C[C@H]4C(C)=C(OC)C(=O)[C@H]([C@@]2(C)C1=O)[C@@]34C`, the growth inhibition was found to be 0.931%.
With `CCCCCCCCCCCCCCCCCCOCC(O)CO` (stereo unspecified) the figure was -2.99%.
Next, `CN(C)CCCN1c2ccccc2Sc2ccc(C(F)(F)F)cc21`: -4.57%.
Next, `CC1=C(CCC(=O)O)c2cc3nc(cc4[nH]c(cc5[nH]c(cc1n2)c(C)c5C(C)O)c(C)c4C(C)O)C(C)=C3CCC(=O)O` (stereo unspecified): -15.1%; `CC1=C(/C=C/C(C)=C/C=C/C(C)=C/C=C/C=C(C)/C=C/C=C(C)/C=C/[C@@]23O[C@]2(C)C[C@@H](O)CC3(C)C)C(C)(C)C[C@H](O)C1`: -17.1%.
On to `COc1ccc([C@@H]2CC(=O)c3c(O)cc(O)cc3O2)cc1O`, for which the growth inhibition is -23.4%.
With `CCN(CC)CCOC(=O)C1(C2CCCCC2)CCCCC1` the figure was -3.41%; with `O=c1cc(-c2ccccc2)oc2c(O)c(O)ccc12`, -24%; with `CC(N/C(=N\C#N)Nc1ccncc1)C(C)(C)C` (stereo unspecified), -8.21%.
With `Oc1cc(O)c2c(c1)O[C@H](c1ccc(O)c(O)c1)[C@@H](O)C2` the figure was -33.2%; with `O=C1c2c(O)cccc2Cc2cccc(O)c21`, -35.5%.
Regarding `O=C1C[C@@H](c2ccccc2)Oc2cc(O)cc(O)c21`, the growth inhibition is -5.75%.
Next, `C[n+]1cccc(C(=O)[O-])c1`: -1.28%; `O=c1[nH]c(=O)n([C@H]2C[C@H](O)[C@@H](CO)O2)cc1F`: -41.4%.
Regarding `Nc1ccc(C(=O)Oc2ccccc2)c(O)c1`, the growth inhibition is -3.47%.
Next, `NS(=O)(=O)c1cc2c(cc1Cl)NCNS2(=O)=O`: -0.831%.
Regarding `CC(=O)O[C@H]1CC[C@]2(C)[C@H]3CC=C4[C@@H]5CC(C)(C)CC[C@]5(C)CC[C@@]4(C)[C@]3(C)CC[C@H]2C1(C)C` [beta-AMYRIN ACETATE], the growth inhibition is -4.59%.
As to `COc1cc(/C=C/C(=O)O)ccc1O`, the growth inhibition worked out at 2.67%.
With `CN(C)CCC=C1c2ccccc2C=Cc2ccccc21` the figure was -11.5%; with `CCC(=O)O[C@H]1[C@H](O[C@@H]2[C@@H](C)[C@H](O[C@H]3C[C@@](C)(OC)[C@@H](O)[C@H](C)O3)[C@@H](C)C(=O)O[C@H](CC)[C@@](C)(O)[C@H](O)[C@@H](C)C(=O)[C@H](C)C[C@@]2(C)O)O[C@H](C)C[C@@H]1N(C)C`, -5.58%; with `Nc1ncnc2c1ncn2[C@@H]1O[C@H](COP(=O)(O)O)[C@@H](O)[C@H]1O`, 0.983%.
Next, `CC1=CC(=O)CC(C)(C)C1(O)/C=C/C(C)=C\C(=O)O` (mixture of isomers) [ABSCISIC ACID (cis,trans; +/-)]: -12.8%.
Regarding `C=C1CCC2C(CC2(C)C)C(=C)CC/C1=N/O` (stereo unspecified), the growth inhibition was 1.71%.
With `C[C@@H]1C(=O)O[C@H]2C[C@@]34[C@H]5C[C@@H](C(C)(C)C)[C@]36[C@@H](OC(=O)[C@@H]6O)O[C@@]4(C(=O)O5)[C@]21O` the figure was 0.397%; with `O=C(O)c1cc(O)c2c(c1)[C@H]([C@H]1c3cc(C(=O)O)cc(O)c3C(=O)c3c(O[C@@H]4O[C@H](CO)[C@@H](O)[C@H](O)[C@H]4O)cccc31)c1cccc(O[C@@H]3O[C@H](CO)[C@@H](O)[C@H](O)[C@H]3O)c1C2=O`, 1.23%; with `O=C(/C=C/c1ccccc1)c1c(O)cc(O)cc1O`, -16%.
Consider `COc1cc(O)c(C(C)=O)c(OC)c1`, for which the growth inhibition was -4.92%.
Turning to `CCCCC(=O)O[C@]1(C(=O)CO)[C@@H](C)C[C@H]2[C@@H]3CCC4=CC(=O)C=C[C@]4(C)[C@@]3(F)[C@@H](O)C[C@@]21C`, the growth inhibition is -31.1%.
With `COc1cc(C(=O)N2CCOCC2)cc(OC)c1OC` the figure was -29.4%; with `CC(=O)OCC(=O)[C@@]1(O)CC[C@H]2[C@@H]3CCC4=CC(=O)CC[C@]4(C)[C@H]3C(=O)C[C@@]21C`, -1.99%; with `COc1cc2cccc(OC)c(=O)c2c(OC)c1OC`, -22%.
Next, `CC1CCC(NC(=O)N(CCCl)N=O)CC1` (stereo unspecified): -4.92%.
Next, `CC1=C2C(O)C(=O)OC3CC4C(C)(C)C(=O)C=C[C@]4(C)C(CC1)[C@]23C` (stereo partly specified): -16.6%.
For the compound `Oc1ccc(O)cc1`, the growth inhibition was -26.9%.
With `COC1=C(O)C(=O)c2c(cc3oc(C(C)=O)c(O)c3c2O)C1=O` the figure was -10.3%; with `CC(C)(O)CC[C@@H](O)[C@](C)(O)[C@H]1CC[C@@]2(O)C3=CC(=O)[C@@H]4C[C@@H](O)[C@@H](O)C[C@]4(C)[C@H]3CC[C@]12C`, -2.52%.
